{"source": "patent US8092800B2", "about": "(priority 2005, dated 2012)", "origin": "cited, not measured here", "tested_on": "Candida albicans strain AIDS 68", "conditions": "strain AIDS 68, isolated from an AIDS patient as fluconazole resistant; cited from earlier work", "data": [{"smiles": "OC(Cn1cncn1)(Cn1cncn1)c1ccc(F)cc1F", "note": "[Fluconazole, fluconazole]", "values": [{"measurement": "MIC", "value": "> 64", "unit": "µg/mL"}]}]}
